{"sequences": {"note": "Chains of the proteins cited; added tags and fusions are not shown. Chains listed by the source or under a name are the forms on record and can include a tag or linker.", "UniProt P15692, other isoform, or with tags, fused parts or gaps": "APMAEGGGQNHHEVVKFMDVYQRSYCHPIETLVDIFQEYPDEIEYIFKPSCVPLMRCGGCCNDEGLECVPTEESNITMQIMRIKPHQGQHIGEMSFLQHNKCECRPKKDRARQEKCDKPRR", "VEGF-165 (VEGF-A) (Homo sapiens), one chain, as listed by the source": "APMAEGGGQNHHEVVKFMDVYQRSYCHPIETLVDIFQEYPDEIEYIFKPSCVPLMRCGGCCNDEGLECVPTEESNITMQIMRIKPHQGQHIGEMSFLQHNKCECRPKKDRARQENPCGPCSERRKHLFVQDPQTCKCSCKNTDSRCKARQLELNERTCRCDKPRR"}, "source": "patent US20230095004", "key": {"[1]": {"target": "VEGF-121 (VEGF-A) (Homo sapiens) (UniProt P15692)", "assay": "flow cytometry", "conditions": "2'-F all nucleotides; PBSMCT, 37 C; purified recombinant protein; label: biotin; variant of AMS0433.0"}, "[2]": {"system": "VEGF-165 (VEGF-A) (Homo sapiens)", "assay": "flow cytometry", "conditions": "purified recombinant protein"}, "[3]": {"system": "VEGF-165 (VEGF-A) (Homo sapiens)", "assay": "competition with a labelled probe", "conditions": "purified recombinant protein"}, "[4]": {"target": "T1, Angiopoietin-2 (Ang2) (Homo sapiens) (UniProt O15123)", "T1 sequence (looked up, limits assumed)": "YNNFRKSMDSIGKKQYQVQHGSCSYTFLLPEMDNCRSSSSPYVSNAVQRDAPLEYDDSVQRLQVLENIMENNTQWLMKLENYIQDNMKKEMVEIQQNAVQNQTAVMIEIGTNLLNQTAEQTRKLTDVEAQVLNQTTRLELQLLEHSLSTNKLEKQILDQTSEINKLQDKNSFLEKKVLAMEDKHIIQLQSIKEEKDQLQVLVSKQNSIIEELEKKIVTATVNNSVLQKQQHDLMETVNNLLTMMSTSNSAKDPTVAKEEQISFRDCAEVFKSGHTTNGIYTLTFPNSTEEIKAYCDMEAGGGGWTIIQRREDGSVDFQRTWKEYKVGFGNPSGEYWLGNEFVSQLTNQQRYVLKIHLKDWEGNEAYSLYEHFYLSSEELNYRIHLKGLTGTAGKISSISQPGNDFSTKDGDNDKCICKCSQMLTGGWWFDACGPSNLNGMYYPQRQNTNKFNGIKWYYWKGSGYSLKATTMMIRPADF", "assay": "competition with a labelled probe", "conditions": "2'-F; hexaethylene glycol (H) linker replacing UUUUA after UGCAUGCA [hexaethylene glycol (H) linker between 8 and 9, left out (replaces parent UUUUA); 2'-F (positions not stated)]; Ang2/Tie2 competition (column printed Tier2); purified recombinant protein; protein details: His tag, R&D Systems 623-AN; letters built from the parent sequence and the stated change; variant of AMSB107"}, "[5]": {"conditions": "2'-F all nucleotides, PBSMCT, 37 C, label: biotin, variant of AMS0433.0"}, "[6]": {"conditions": "2'-F all, protein details: R&D Systems 293-VE-050, variant of AMS0433.0"}, "[7]": {"conditions": "2'-F all nucleotides, variant of AMSB107"}, "[8]": {"conditions": "2'-F all, VEGF/VEGFR2 inhibition, protein details: R&D Systems 293-VE-050, variant of AMSB107"}, "[9]": {"conditions": "2'-F, H = hexaethylene glycol linker, VEGF/VEGFR2 inhibition, protein details: R&D Systems 293-VE-050, variant of AMSB107"}}, "note": "For some assays here: For at least one entry, the source does not settle the construct or the ends of the probe. For some assays here: Tags and fusion partners may be left off the protein sequences shown.", "data": [{"sequence": "UGAGCUCGGAUGCUCCGCAUAUCUGCG [AMS0433.12]", "values": [{"measurement": "Kd", "setting": "[1]", "result": "> 100", "unit": "nM"}, {"measurement": "Kd", "setting": "[2]; [5]", "result": "> 100", "unit": "nM"}, {"measurement": "IC50", "setting": "[3]; [6]", "result": "> 100", "unit": "nM"}]}, {"sequence": "UGAGUCGGAUCUCCGCAUAUCUGCG [AMS0433.9]", "values": [{"measurement": "Kd", "setting": "[1]", "result": "> 100", "unit": "nM"}, {"measurement": "Kd", "setting": "[2]; [5]", "result": "> 100", "unit": "nM"}, {"measurement": "IC50", "setting": "[3]; [6]", "result": "> 100", "unit": "nM"}]}, {"sequence": "UGCAUGCACAGUGAGUCGGAUCUCCGCAUAGAUAAGCCAACAAACGUACAUUCUCUGUUAGUAUUUUCUGCG [AMSB107.7]", "values": [{"measurement": "Kd", "setting": "[2]; [7]", "result": "> 100", "unit": "nM"}, {"measurement": "IC50", "setting": "[3]; [8]", "result": "> 100", "unit": "nM"}]}, {"sequence": "UGCAUGCACCAGUGAGUCGGAUCUCCGCAUAGAUAAGCCAACAAACGUACAUUCUCUGUUAGUAUUUUCUGCG [AMSB107.22]", "values": [{"measurement": "IC50", "setting": "[3]; [9]", "result": 0.044, "unit": "nM"}]}, {"sequence": "UGCAUGCACCAGUGAGUCGGAUCUCCGCAUAGAUAAGCCAACAAACGUACAUUCUCUGUUAGUAUUUUCUGCG [AMSB107.26]", "values": [{"measurement": "IC50", "setting": "[3]; 2'-F, OO linker as printed, VEGF/VEGFR2 inhibition, protein details: R&D Systems 293-VE-050, variant of AMSB107", "result": 0.044, "unit": "nM"}]}, {"sequence": "UGCAUGCACCAGUGAGUCGGAUCUCCGCAUAGAUAAGCCAACAAACGUACAUUCUCUGUUAGUAUUUUCUGCG [AMSB107.27]", "values": [{"measurement": "IC50", "setting": "[3]; 2'-F, OOOO linker as printed, VEGF/VEGFR2 inhibition, protein details: R&D Systems 293-VE-050, variant of AMSB107", "result": 0.037, "unit": "nM"}]}, {"sequence": "UGCAUGCACCAGUGAGUCGGAUCUCCGCAUAGAUAAGCCAACAAACGUACAUUCUCUGUUAGUAUUUUCUGCG [AMSB107.P6]", "values": [{"measurement": "IC50", "setting": "[4]", "result": 0.035, "unit": "nM"}, {"measurement": "IC50", "setting": "[3]; 2'-F, hexaethylene glycol (H) linker replacing UUUUA after UGCAUGCA [hexaethylene glycol (H) linker between 8 and 9, left out (replaces parent UUUUA), 2'-F (positions not stated)], VEGF receptor competition, letters built from the parent sequence and the stated change, variant of AMSB107", "result": 0.039, "unit": "nM"}]}, {"sequence": "UGCAUGCAUUUUACCAGUGAGUCGGAUCUCCGCAUAGAUAAGCCAACAAACGUACAUUCUCUGUUAGUAUUUUCUGCG [AMSB107.19]", "values": [{"measurement": "Kd", "setting": "[2]; 2'-F, LNA at selected positions of the VEGF consensus as printed, variant of AMSB107", "result": "> 100", "unit": "nM"}, {"measurement": "IC50", "setting": "[3]; 2'-F with LNA (L) at positions as printed, VEGF/VEGFR2 inhibition, protein details: R&D Systems 293-VE-050, variant of AMSB107", "result": "> 100", "unit": "nM"}]}, {"sequence": "UGCAUGCAUUUUACCAGUGAGUCGGAUCUCCGCAUAGAUAAGCCAACAAACGUACAUUCUCUGUUAGUAUUUUCUGCG [AMSB107.23]", "values": [{"measurement": "IC50", "setting": "[3]; 2'-F, 5' H = hexaethylene glycol linker, VEGF/VEGFR2 inhibition, protein details: R&D Systems 293-VE-050, variant of AMSB107", "result": 0.04, "unit": "nM"}]}, {"sequence": "UGCAUGCAUUUUACCAGUGAGUCGGAUCUCCGCAUAGAUAAGCCAACAAACGUUCUCUGUUAGUAUUUUCUGCG [AMSB107.25]", "values": [{"measurement": "IC50", "setting": "[3]; [9]", "result": 0.061, "unit": "nM"}]}, {"sequence": "UGCAUGCAUUUUACCAGUGAGUCGGAUCUCCGCAUAGAUAAGCCAACAAAUUCUCUGUUAGUAUUUUCUGCG [AMSB107.24]", "values": [{"measurement": "IC50", "setting": "[3]; [9]", "result": 0.067, "unit": "nM"}]}, {"sequence": "UGCAUGCAUUUUACCAGUGAGUCGGAUCUCUUUCGCAUAGAUAAGCCAACAAACGUACAUUCUCUGUUAGUAUUUUCUGCG [AMSB107.16]", "values": [{"measurement": "Kd", "setting": "[2]; [7]", "result": "> 100", "unit": "nM"}, {"measurement": "IC50", "setting": "[3]; [8]", "result": "> 100", "unit": "nM"}]}]}
